# Measured values taken from the supplement of paper PMC8728848.
# This is one part of the list.
# B1: Mermaid1 (Stilbonema majum) (protein)
# chain: MGSSHHHHHHSSGLVPRGSHMAASGWLRSPQGTVVKLYRRSLSWSKADEFCKDVDGRLVVDRTADMHLFLIKNVLKEKKSRVWVGLRRTAPHSRTWIWSDGTRQNEDDLDANLWLRDEPNDAAGEEECALFMYSPWEKAWGLNDYLCRGGCRSYQFICEKWIR
# Legend:
# Experiment in all cases: glycan array binding signal (z-score within array); higher = stronger binding
# Conditions in all cases: glycan notation: IUPAC condensed, linker removed
# [1] = molecular target: GlcNAc(b1-3)Gal(b1-4)Glc
# How it was run: (§1)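 Glycan array binding is given as a within-array Z-score, which can be read as non-binding when negative. The arrays, 3228 of them, came from the Consortium for Functional Glycomics database and were retained only where the protein sequence was available. Z-scores were averaged across arrays of the same protein sequence at different concentrations or buffers and across linkers.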
# [2] = molecular target: GlcNAc(b1-3)Gal(b1-4)GlcNAc
# How it was run: as §1
# [3] = molecular target: GlcNAc(b1-3)Gal(b1-4)GlcNAc(b1-2)Man(a1-3)[GlcNAc(b1-3)Gal(b1-4)GlcNAc(b1-2)Man(a1-6)]Man(b1-4)GlcNAc(b1-4)GlcNAc
# How it was run: as §1
# [4] = molecular target: GlcNAc(b1-3)Gal(b1-4)GlcNAc(b1-2)Man(a1-3)[GlcNAc(b1-3)Gal(b1-4)GlcNAc(b1-2)Man(a1-6)]Man(b1-4)GlcNAc(b1-4)[Fuc(a1-6)]GlcNAc
# How it was run: as §1
# [5] = molecular target: GlcNAc(b1-3)Gal(b1-4)GlcNAc(b1-2)[GlcNAc(b1-3)Gal(b1-4)GlcNAc(b1-6)]Man(a1-6)[GlcNAc(b1-3)Gal(b1-4)GlcNAc(b1-2)Man(a1-3)]Man(b1-4)GlcNAc(b1-4)GlcNAc
# How it was run: as §1
# [6] = molecular target: GlcNAc(b1-3)Gal(b1-4)GlcNAc(b1-3)Gal(b1-4)GlcNAc
# How it was run: as §1
# [7] = molecular target: GlcNAc(b1-3)Gal(b1-4)GlcNAc(b1-3)Gal(b1-4)GlcNAc(b1-2)Man(a1-3)[GlcNAc(b1-3)Gal(b1-4)GlcNAc(b1-3)Gal(b1-4)GlcNAc(b1-2)Man(a1-6)]Man(b1-4)GlcNAc(b1-4)GlcNAc
# How it was run: as §1
# [8] = molecular target: GlcNAc(b1-3)Gal(b1-4)GlcNAc(b1-3)Gal(b1-4)GlcNAc(b1-2)Man(a1-3)[GlcNAc(b1-3)Gal(b1-4)GlcNAc(b1-3)Gal(b1-4)GlcNAc(b1-2)Man(a1-6)]Man(b1-4)GlcNAc(b1-4)[Fuc(a1-6)]GlcNAc
# How it was run: as §1
# [9] = molecular target: GlcNAc(b1-3)Gal(b1-4)GlcNAc(b1-3)Gal(b1-4)GlcNAc(b1-2)[GlcNAc(b1-3)Gal(b1-4)GlcNAc(b1-3)Gal(b1-4)GlcNAc(b1-6)]Man(a1-6)[GlcNAc(b1-3)Gal(b1-4)GlcNAc(b1-3)Gal(b1-4)GlcNAc(b1-2)Man(a1-3)]Man(b1-4)GlcNAc(b1-4)[Fuc(a1-6)]GlcNAc
# How it was run: as §1
# [10] = molecular target: GlcNAc(b1-3)Gal(b1-4)GlcNAc(b1-3)Gal(b1-4)GlcNAc(b1-3)Gal(b1-4)GlcNAc(b1-2)Man(a1-3)[GlcNAc(b1-3)Gal(b1-4)GlcNAc(b1-3)Gal(b1-4)GlcNAc(b1-3)Gal(b1-4)GlcNAc(b1-2)Man(a1-6)]Man(b1-4)GlcNAc(b1-4)GlcNAc
# How it was run: as §1
# [11] = molecular target: GlcNAc(b1-3)Gal(b1-4)GlcNAc(b1-3)Gal(b1-4)GlcNAc(b1-3)Gal(b1-4)GlcNAc(b1-2)Man(a1-3)[GlcNAc(b1-3)Gal(b1-4)GlcNAc(b1-3)Gal(b1-4)GlcNAc(b1-3)Gal(b1-4)GlcNAc(b1-2)Man(a1-6)]Man(b1-4)GlcNAc(b1-4)[Fuc(a1-6)]GlcNAc
# How it was run: as §1
# [12] = molecular target: GlcNAc(b1-3)Gal(b1-4)GlcNAc(b1-3)Gal(b1-4)GlcNAc(b1-3)Gal(b1-4)GlcNAc(b1-2)[GlcNAc(b1-3)Gal(b1-4)GlcNAc(b1-3)Gal(b1-4)GlcNAc(b1-3)Gal(b1-4)GlcNAc(b1-6)]Man(a1-6)[GlcNAc(b1-3)Gal(b1-4)GlcNAc(b1-3)Gal(b1-4)GlcNAc(b1-3)Gal(b1-4)GlcNAc(b1-2)Man(a1-3)]Man(b1-4)GlcNAc(b1-4)[Fuc(a1-6)]GlcNAc
# How it was run: as §1
# [13] = molecular target: GlcNAc(b1-3)Gal(b1-4)GlcNAc(b1-3)Gal(b1-4)GlcNAc(b1-3)Gal(b1-4)GlcNAc(b1-3)Gal(b1-4)GlcNAc(b1-2)Man(a1-3)[GlcNAc(b1-3)Gal(b1-4)GlcNAc(b1-3)Gal(b1-4)GlcNAc(b1-3)Gal(b1-4)GlcNAc(b1-3)Gal(b1-4)GlcNAc(b1-2)Man(a1-6)]Man(b1-4)GlcNAc(b1-4)GlcNAc
# How it was run: as §1
# [14] = molecular target: GlcNAc(b1-3)Gal(b1-4)GlcNAc(b1-3)Gal(b1-4)GlcNAc(b1-3)Gal(b1-4)GlcNAc(b1-3)Gal(b1-4)GlcNAc(b1-2)Man(a1-3)[GlcNAc(b1-3)Gal(b1-4)GlcNAc(b1-3)Gal(b1-4)GlcNAc(b1-3)Gal(b1-4)GlcNAc(b1-3)Gal(b1-4)GlcNAc(b1-2)Man(a1-6)]Man(b1-4)GlcNAc(b1-4)[Fuc(a1-6)]GlcNAc
# How it was run: as §1
# [15] = molecular target: GlcNAc(b1-3)Gal(b1-4)GlcNAc(b1-3)Gal(b1-4)GlcNAc(b1-3)Gal(b1-4)GlcNAc(b1-3)Gal(b1-4)GlcNAc(b1-2)[GlcNAc(b1-3)Gal(b1-4)GlcNAc(b1-3)Gal(b1-4)GlcNAc(b1-3)Gal(b1-4)GlcNAc(b1-3)Gal(b1-4)GlcNAc(b1-6)]Man(a1-6)[GlcNAc(b1-3)Gal(b1-4)GlcNAc(b1-3)Gal(b1-4)GlcNAc(b1-3)Gal(b1-4)GlcNAc(b1-3)Gal(b1-4)GlcNAc(b1-2)Man(a1-3)]Man(b1-4)GlcNAc(b1-4)[Fuc(a1-6)]GlcNAc
# How it was run: as §1
# [16] = molecular target: GlcNAc(b1-3)Gal(b1-4)GlcNAc(b1-3)Gal(b1-4)GlcNAc(b1-3)GalNAc
# How it was run: as §1
# [17] = molecular target: GlcNAc(b1-3)Gal(b1-4)GlcNAc(b1-3)GalNAc
# How it was run: as §1
# [18] = molecular target: GlcNAc(b1-3)Gal(b1-4)GlcNAc(b1-3)[GlcNAc(b1-3)Gal(b1-4)GlcNAc(b1-3)]GalNAc
# How it was run: as §1
# [19] = molecular target: GlcNAc(b1-3)Gal(b1-4)GlcNAc(b1-6)[Gal(b1-3)]GalNAc
# How it was run: as §1
# [20] = molecular target: GlcNAc(b1-3)Gal(b1-4)GlcNAc(b1-6)[GlcNAc(b1-3)Gal(b1-3)]GalNAc
# How it was run: as §1
# [21] = molecular target: GlcNAc(b1-3)Gal(b1-4)GlcNAc(b1-6)[GlcNAc(b1-3)]Gal(b1-4)GlcNAc
# How it was run: as §1
# [22] = molecular target: GlcNAc(b1-3)GalNAc
# How it was run: as §1
# [23] = molecular target: GlcNAc(b1-3)Man
# How it was run: as §1
# [24] = molecular target: GlcNAc(b1-3)[GlcNAc(b1-4)][GlcNAc(b1-6)]GlcNAc
# How it was run: as §1
# [25] = molecular target: GlcNAc(b1-3)[GlcNAc(b1-6)]Gal(b1-4)GlcNAc
# How it was run: as §1
# [26] = molecular target: GlcNAc(b1-3)[GlcNAc(b1-6)]GalNAc
# How it was run: as §1
# [27] = molecular target: GlcNAc(b1-4)Gal(b1-4)GlcNAc
# How it was run: as §1
# [28] = molecular target: GlcNAc(b1-4)GlcNAc
# How it was run: as §1
# [29] = molecular target: GlcNAc(b1-4)GlcNAc(b1-4)GlcNAc
# How it was run: as §1
# [30] = molecular target: GlcNAc(b1-4)GlcNAc(b1-4)GlcNAc(b1-4)GlcNAc(b1-4)GlcNAc
# How it was run: as §1
# [31] = molecular target: GlcNAc(b1-4)GlcNAc(b1-4)GlcNAc(b1-4)GlcNAc(b1-4)GlcNAc(b1-4)GlcNAc
# How it was run: as §1
# [32] = molecular target: GlcNAc(b1-4)[GlcNAc(b1-6)]GalNAc
# How it was run: as §1
# [33] = molecular target: GlcNAc(b1-6)Gal(b1-4)GlcNAc
# How it was run: as §1
# [34] = molecular target: GlcNAc(b1-6)GalNAc
# How it was run: as §1
# [35] = molecular target: GlcNAc6S(b1-3)Gal(b1-4)GlcNAc
# How it was run: as §1
# [36] = molecular target: Kdn(a2-3)Gal(b1-3)GalNAc
# How it was run: as §1
# [37] = molecular target: Kdn(a2-3)Gal(b1-3)GlcNAc
# How it was run: as §1
# [38] = molecular target: Kdn(a2-3)Gal(b1-4)Glc
# How it was run: as §1
# [39] = molecular target: Kdn(a2-3)Gal(b1-4)GlcNAc
# How it was run: as §1
# [40] = molecular target: Kdn(a2-3)Gal(b1-4)[Fuc(a1-3)]GlcNAc
# How it was run: as §1
# [41] = molecular target: Kdn(a2-6)Gal(b1-4)GlcNAc
# How it was run: as §1
# [42] = molecular target: Man(a1-2)Man(a1-2)Man(a1-3)Man
# How it was run: as §1
# [43] = molecular target: Man(a1-2)Man(a1-2)Man(a1-6)[Man(a1-3)]Man
# How it was run: as §1
# [44] = molecular target: Man(a1-2)Man(a1-3)Man
# How it was run: as §1
# [45] = molecular target: Man(a1-2)Man(a1-3)[Man(a1-2)Man(a1-6)]Man
# How it was run: as §1
binder,measurement,setting,value
B1,glycan array binding signal (z-score),[1],0.313
same,glycan array binding signal (z-score),[2],-0.029
same,glycan array binding signal (z-score),[3],0.436
same,glycan array binding signal (z-score),[4],0.788
same,glycan array binding signal (z-score),[5],0.126
same,glycan array binding signal (z-score),[6],-0.162
same,glycan array binding signal (z-score),[7],0.108
same,glycan array binding signal (z-score),[8],1.05
same,glycan array binding signal (z-score),[9],0.936
same,glycan array binding signal (z-score),[10],0.578
same,glycan array binding signal (z-score),[11],0.762
same,glycan array binding signal (z-score),[12],0.942
same,glycan array binding signal (z-score),[13],0.156
same,glycan array binding signal (z-score),[14],-0.271
same,glycan array binding signal (z-score),[15],1.27
same,glycan array binding signal (z-score),[16],-0.581
same,glycan array binding signal (z-score),[17],0.277
same,glycan array binding signal (z-score),[18],-0.024
same,glycan array binding signal (z-score),[19],-0.29
same,glycan array binding signal (z-score),[20],-0.841
same,glycan array binding signal (z-score),[21],-0.656
same,glycan array binding signal (z-score),[22],-0.466
same,glycan array binding signal (z-score),[23],0.396
same,glycan array binding signal (z-score),[24],1.23
same,glycan array binding signal (z-score),[25],-0.198
same,glycan array binding signal (z-score),[26],-0.273
same,glycan array binding signal (z-score),[27],0.411
same,glycan array binding signal (z-score),[28],1.33
same,glycan array binding signal (z-score),[29],-0.081
same,glycan array binding signal (z-score),[30],1.35
same,glycan array binding signal (z-score),[31],-0.183
same,glycan array binding signal (z-score),[32],-0.626
same,glycan array binding signal (z-score),[33],-0.208
same,glycan array binding signal (z-score),[34],0.164
same,glycan array binding signal (z-score),[35],-0.7
same,glycan array binding signal (z-score),[36],0.551
same,glycan array binding signal (z-score),[37],-0.215
same,glycan array binding signal (z-score),[38],0.324
same,glycan array binding signal (z-score),[39],1.88
same,glycan array binding signal (z-score),[40],0.037
same,glycan array binding signal (z-score),[41],-0.307
same,glycan array binding signal (z-score),[42],-0.695
same,glycan array binding signal (z-score),[43],-0.609
same,glycan array binding signal (z-score),[44],-0.708
same,glycan array binding signal (z-score),[45],-0.613
